Values quoted from earlier work, collected in US8859565B2, “Compound for inhibiting type 5 phosphodiesterase and preparation method thereof” (priority 2010, dated 2014).
Counter-ions that a name gives are not always drawn. At least one structure is not confirmed: it was looked up by name or label, or the drawing left a doubt.

System: rats having diabetes
Conditions: cited from earlier work

Question: Which Delayed gastric emptying does the source give for `CCCc1nn(C)c2c(=O)[nH]c(-c3cc(S(=O)(=O)N4CCN(C)CC4)ccc3OCC)nc12` [sildenafil citrate] here?
Answer: can reverse delayed gastric emptying
